# Source: PMC10806400
# Sequences of proteins named here, by UniProt entry; tags and fusion partners are left off. Residues count along the entry.
# UniProt Q15075, residues 1-209: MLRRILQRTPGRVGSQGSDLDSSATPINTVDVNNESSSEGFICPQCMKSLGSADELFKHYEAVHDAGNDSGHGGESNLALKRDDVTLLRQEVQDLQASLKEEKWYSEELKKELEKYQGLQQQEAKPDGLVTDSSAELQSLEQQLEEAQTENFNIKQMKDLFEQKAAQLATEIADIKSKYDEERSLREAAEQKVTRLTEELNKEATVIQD
# Results are given in words; binding and its absence hold for the method and conditions named. In cells and extracts the contact can be indirect. Some binding calls cover weakened binding; strength is not graded here. Where a sequence is shown, tags or fusion partners need not be part of it.
# B1: YFP-Rab5A (wild type) (protein, UniProt Q86JP3 1-201)
# chain: MNNNNKIFQFKLVLLGEAAVGKSSLVLRFVRGHFLDYQESTIGAAFLAQTVCLNDTTVKFEIWDTAGQERYHTLAPMYYRGAQAAIVVYDIRSEDSFERAIKWVKELQRQGSPNIVIALAGNKLDLAAKRKVETAEAQQYAEENGLLFMETSAKTSQNVNELFVEIAKKLPKTPTTRPGSGRVAIAPIDNGNTGKKNKCCN
# Target: GST-EEA1^(1–209) (human) (UniProt Q15075)
# Test: pull-down; GST-EEA1(1-209) bound to glutathione-agarose; lysates of AX2 wild-type and iqgC null cells expressing YFP-Rab5A; 50 mM Tris pH 8, 1 mM EGTA, 40 mM NaCl, 1 mM DTT, 0.5% n-octylpolyoxyethylene; anti-GFP immunoblot; only the target purified
binder,measurement,value
B1,binding,binds
